Values from PubChem BioAssay AID1259254 (NCATS, 2017).
Aim: 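Gene knock-downs that lead to re-replication, shown by excess G2 DNA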 (primary screen). System: human HCT116 colorectal cancer cells. Reagent: single siRNA against human genes. Duration: 3 days. Read-out: 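Imaged Hoechst DNA stain sorts each cell into a cycle phase by DNA amount; per plate, G2 fraction set to 0% for non-targeting and 100% for GMNN siRNA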. Reading the numbers: G2 robust z-score and G2 cells, % of GMNN control: higher = more G2 cells, more excess DNA replication; raw share of cells in G2: higher = larger share of cells with G2 DNA content. Hit rule: 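An siRNA counts as active if its G2 robust z-score lies at least 5 MADs above the screen median; here such calls match roughly 38% of GMNN control or more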.
In all, the deposit lists about 59,000 reagents; this is a random part of them. About 1,550 of them (2.6%) count as active. 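G2 share is only a proxy for re-replication; each gene was hit by three separate siRNAs, and active genes were retested.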 Raw values are not corrected between plates. Reagents against one gene are numbered here. Not stated in the record: the amount of reagent.

Target gene,reagent no.,G2 robust z-score,"G2 cells, % of GMNN control",raw share of cells in G2 (%),activity call
BBOX1 (gamma-butyrobetaine hydroxylase 1),1,2.87,23.2,13,inactive
BBOX1 (gamma-butyrobetaine hydroxylase 1),2,-0.851,-3.02,4.2,inactive
BBOX1 (gamma-butyrobetaine hydroxylase 1),3,1.34,12.4,10.2,inactive
EBLN2 (endogenous Bornavirus like nucleoprotein 2),1,-0.818,-2.79,3.45,inactive
EBLN2 (endogenous Bornavirus like nucleoprotein 2),2,-0.577,-1.1,3.68,inactive
EBLN2 (endogenous Bornavirus like nucleoprotein 2),3,-0.135,2.02,3.78,inactive
PTPRH (protein tyrosine phosphatase receptor type H),1,-0.149,1.92,5.42,inactive
PTPRH (protein tyrosine phosphatase receptor type H),2,2.87,23.1,11.3,inactive
PTPRH (protein tyrosine phosphatase receptor type H),3,-0.17,1.77,4.03,inactive
BLOC1S4 (biogenesis of lysosomal organelles complex 1 subunit 4),1,-0.491,-0.488,4.34,inactive
BLOC1S4 (biogenesis of lysosomal organelles complex 1 subunit 4),2,2.12,17.9,11.6,inactive
BLOC1S4 (biogenesis of lysosomal organelles complex 1 subunit 4),3,-0.548,-0.888,2.85,inactive
C11orf42 (chromosome 11 open reading frame 42),1,-0.865,-3.12,2.48,inactive
C11orf42 (chromosome 11 open reading frame 42),2,1.08,10.6,6.5,inactive
C11orf42 (chromosome 11 open reading frame 42),3,-0.237,1.3,3.17,inactive
ZNF549 (zinc finger protein 549),1,0.73,8.1,5.88,inactive
ZNF549 (zinc finger protein 549),2,1.38,12.7,7.57,inactive
ZNF549 (zinc finger protein 549),3,0.445,6.1,5.66,inactive
RNF225 (ring finger protein 225),1,0.133,3.9,5.25,inactive
RNF225 (ring finger protein 225),2,-0.452,-0.209,3.15,inactive
RNF225 (ring finger protein 225),3,-0.463,-0.293,2.95,inactive
ZC3H7A (zinc finger CCCH-type containing 7A),1,-0.533,-0.782,5.81,inactive
ZC3H7A (zinc finger CCCH-type containing 7A),2,-0.847,-2.99,3.19,inactive
ZC3H7A (zinc finger CCCH-type containing 7A),3,-0.286,0.955,4.3,inactive
LIMK2 (LIM domain kinase 2),1,-0.892,-3.31,4.52,inactive
LIMK2 (LIM domain kinase 2),2,-1.34,-6.49,3.22,inactive
LIMK2 (LIM domain kinase 2),3,2.06,17.5,10.2,inactive
LINC01061 (long independently transcribed non-coding RNA 1061),1,1.66,14.7,9.34,inactive
LINC01061 (long independently transcribed non-coding RNA 1061),2,-0.951,-3.72,3.25,inactive
LINC01061 (long independently transcribed non-coding RNA 1061),3,0.82,8.73,6.99,inactive

Next part; the last 3 above are carried over.
Target gene,reagent no.,G2 robust z-score,"G2 cells, % of GMNN control",raw share of cells in G2 (%),activity call
LINC01061 (long independently transcribed non-coding RNA 1061),1,1.66,14.7,9.34,inactive
LINC01061 (long independently transcribed non-coding RNA 1061),2,-0.951,-3.72,3.25,inactive
LINC01061 (long independently transcribed non-coding RNA 1061),3,0.82,8.73,6.99,inactive
SLC9A5,1,0.499,6.48,6.77,inactive
SLC9A5,2,-1.25,-5.83,3.72,inactive
SLC9A5,3,1.4,12.8,8.2,inactive
CABIN1 (calcineurin binding protein 1),1,-0.535,-0.793,4.54,inactive
CABIN1 (calcineurin binding protein 1),2,-0.529,-0.752,4.08,inactive
CABIN1 (calcineurin binding protein 1),3,-0.644,-1.56,3.03,inactive
RASGRP4 (RAS guanyl releasing protein 4),1,2,17,10.9,inactive
RASGRP4 (RAS guanyl releasing protein 4),2,-0.738,-2.22,4.01,inactive
RASGRP4 (RAS guanyl releasing protein 4),3,1.16,11.1,10.8,inactive
ITGA11 (integrin subunit alpha 11),1,0.46,6.2,8.86,inactive
ITGA11 (integrin subunit alpha 11),2,-0.675,-1.78,3.56,inactive
ITGA11 (integrin subunit alpha 11),3,-0.604,-1.28,3.43,inactive
UCP1 (uncoupling protein 1),1,-0.132,2.04,5.02,inactive
UCP1 (uncoupling protein 1),2,-0.229,1.36,4.92,inactive
UCP1 (uncoupling protein 1),3,-1.2,-5.46,3.29,inactive
SLFN13 (schlafen family member 13),1,-0.483,-0.428,3.68,inactive
SLFN13 (schlafen family member 13),2,-0.794,-2.62,2.1,inactive
SLFN13 (schlafen family member 13),3,-0.867,-3.13,1.98,inactive
